PubChem BioAssay AID1259307 – Sanger Institute – 2017

Aim: 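Identify kinases needed for SW620 growth or enhancing BYL719, cetuximab or trametinib effects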 (primary screen)
Cells: SW620 colorectal cancer cells
Reagents: siRNA pool against human genes
Conditions: anchor drugs BYL719 at 1 µM, cetuximab at 5 µg/ml or trametinib at 10 nM, each beside a DMSO vehicle arm
Measurement: 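Per-well viability versus non-targeting control pool, replicate-averaged, robust z-score from controls; synergy scores for BYL719 1 µM, cetuximab 5 µg/ml, trametinib 10 nM against DMSO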
Scale: viability robust z-score, no drug and viability vs control, no drug: higher = more viable cells
Rule for the call: 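a knock-down counts as lethal alone if its drug-free robust viability z-score is lower than -3, regardless of synergy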
Calls: active = essential (lethal alone); inactive = no change alone
Shown is one part, drawn at random, of 794 reagents. 15 of them (1.9%) count as active. 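Calls reflect lethality without any drug; synergy scores did not enter the calls.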 Unmarked entries are inactive. Viability is capped at 1. Further read-outs or replicates are left out here. Not given: the amount of reagent, the time to read-out.

SRPK2 (SRSF protein kinase 2) | viability robust z-score, no drug: 0.736; viability vs control, no drug: 1
MAK (male germ cell associated kinase) | viability robust z-score, no drug: -0.911; viability vs control, no drug: 0.848
NEK9 (NIMA related kinase 9) | viability robust z-score, no drug: 0.736; viability vs control, no drug: 1
HK3 (hexokinase 3) | viability robust z-score, no drug: 0.736; viability vs control, no drug: 1
TAF1 (TATA-box binding protein associated factor 1) | viability robust z-score, no drug: 0.648; viability vs control, no drug: 0.992
CDC42BPA (CDC42 binding protein kinase alpha) | viability robust z-score, no drug: 0.736; viability vs control, no drug: 1
PINK1 (PTEN induced kinase 1) | viability robust z-score, no drug: 0.538; viability vs control, no drug: 0.982
PIK3R4 (phosphoinositide-3-kinase regulatory subunit 4) | viability robust z-score, no drug: 0.242; viability vs control, no drug: 0.954
MAPKAPK5 (MAPK activated protein kinase 5) | viability robust z-score, no drug: 0.387; viability vs control, no drug: 0.968
TSSK3 (testis specific serine kinase 3) | viability robust z-score, no drug: -1.32; viability vs control, no drug: 0.811
ACVR1B (activin A receptor type 1B) | viability robust z-score, no drug: 0.736; viability vs control, no drug: 1
PNKP (polynucleotide kinase 3'-phosphatase) | viability robust z-score, no drug: -0.0758; viability vs control, no drug: 0.925
CASP8 (caspase 8) | viability robust z-score, no drug: 0.736; viability vs control, no drug: 1
PHKG2 (phosphorylase kinase catalytic subunit gamma 2) | viability robust z-score, no drug: 0.736; viability vs control, no drug: 1
MAPK12 (mitogen-activated protein kinase 12) | viability robust z-score, no drug: 0.736; viability vs control, no drug: 1
SRPK1 (SRSF protein kinase 1) | viability robust z-score, no drug: -1.18; viability vs control, no drug: 0.823
TNK2 (tyrosine kinase non receptor 2) | viability robust z-score, no drug: 0.736; viability vs control, no drug: 1
UCKL1 (uridine-cytidine kinase 1 like 1) | viability robust z-score, no drug: 0.736; viability vs control, no drug: 1
AK2 (adenylate kinase 2) | viability robust z-score, no drug: 0.736; viability vs control, no drug: 1
CPNE3 (copine 3) | viability robust z-score, no drug: 0.736; viability vs control, no drug: 1
GSK3B (glycogen synthase kinase 3 beta) | viability robust z-score, no drug: 0.231; viability vs control, no drug: 0.953
DMPK (DM1 protein kinase) | viability robust z-score, no drug: -2.09; viability vs control, no drug: 0.739
TTBK1 (tau tubulin kinase 1) | viability robust z-score, no drug: -0.4; viability vs control, no drug: 0.895
NTRK2 (neurotrophic receptor tyrosine kinase 2) | viability robust z-score, no drug: 0.736; viability vs control, no drug: 1
NLK (nemo like kinase) | viability robust z-score, no drug: -1.32; viability vs control, no drug: 0.811
PKN2 (protein kinase N2) | viability robust z-score, no drug: 0.51; viability vs control, no drug: 0.979
EPHA3 (EPH receptor A3) | viability robust z-score, no drug: 0.736; viability vs control, no drug: 1
CDC42BPB (CDC42 binding protein kinase beta) | viability robust z-score, no drug: 0.408; viability vs control, no drug: 0.97

4 consecutive entries from above, for reference:
UCKL1 (uridine-cytidine kinase 1 like 1) | viability robust z-score, no drug: 0.736; viability vs control, no drug: 1
AK2 (adenylate kinase 2) | viability robust z-score, no drug: 0.736; viability vs control, no drug: 1
CPNE3 (copine 3) | viability robust z-score, no drug: 0.736; viability vs control, no drug: 1
GSK3B (glycogen synthase kinase 3 beta) | viability robust z-score, no drug: 0.231; viability vs control, no drug: 0.953
